# According to the supplement of paper PMC8728848:
# Some of the results follow.
# Experiments:
# Assay in all cases: glycan array binding signal (z-score within array); higher = stronger binding
# Conditions in all cases: glycan notation: IUPAC condensed, linker removed
# [1] = target: Fuc(a1-2)[GalNAc(a1-3)]Gal(b1-4)GlcNAc
# Procedure, shortened: (§1)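 Glycan array data were curated from 3228 arrays in the Consortium for Functional Glycomics database and kept only where the protein sequence was available. Glycan names were converted to IUPAC-condensed notation, and columns mapping to the same glycan were averaged. The binding signal is a within-array Z-score, averaged across arrays of the same protein sequence at different concentrations or buffers and across linkers. Negative Z-scores can be read as non-binding.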
# [2] = target: Fuc(a1-2)[GalNAc(a1-3)]Gal(b1-4)GlcNAc(b1-2)Man(a1-3)[GalNAc(a1-3)[Fuc(a1-2)]Gal(b1-4)GlcNAc(b1-2)Man(a1-6)]Man(b1-4)GlcNAc(b1-4)GlcNAc
# Procedure, shortened: as §1
# [3] = target: Fuc(a1-2)[GalNAc(a1-3)]Gal(b1-4)GlcNAc(b1-3)Gal(b1-4)GlcNAc
# Procedure, shortened: as §1
# [4] = target: Fuc(a1-2)[GalNAc(a1-3)]Gal(b1-4)GlcNAc(b1-3)Gal(b1-4)GlcNAc(b1-3)Gal(b1-4)GlcNAc
# Procedure, shortened: as §1
# [5] = target: Fuc(a1-2)[GalNAc(a1-3)]Gal(b1-4)[Fuc(a1-3)]GlcNAc
# Procedure, shortened: as §1
# [6] = target: Fuc(a1-2)[GalNAc(a1-4)]Gal(b1-4)GlcNAc
# Procedure, shortened: as §1
# [7] = target: Fuc(a1-2)[GalNAc(b1-3)]Gal
# Procedure, shortened: as §1
# Fuc(a1-3)GlcNAc = target: Fuc(a1-3)GlcNAc
# Procedure, shortened: as §1
# [8] = target: Fuc(a1-3)[Gal(b1-4)]Glc6S
# Procedure, shortened: as §1
# [9] = target: Fuc(a1-3)[Gal(b1-4)]GlcNAc
# Procedure, shortened: as §1
# [10] = target: Fuc(a1-3)[Gal(b1-4)]GlcNAc(b1-2)Man(a1-3)[Fuc(a1-3)[Gal(b1-4)]GlcNAc(b1-2)Man(a1-6)]Man(b1-4)GlcNAc(b1-4)GlcNAc
# Procedure, shortened: as §1
# [11] = target: Fuc(a1-3)[Gal(b1-4)]GlcNAc(b1-2)Man(a1-6)[Gal(b1-4)GlcNAc(b1-2)Man(a1-3)]Man(b1-4)GlcNAc(b1-4)GlcNAc
# Procedure, shortened: as §1
# [12] = target: Fuc(a1-3)[Gal(b1-4)]GlcNAc(b1-3)Gal(b1-3)[Fuc(a1-4)]GlcNAc
# Procedure, shortened: as §1
# [13] = target: Fuc(a1-3)[Gal(b1-4)]GlcNAc(b1-4)Gal(b1-4)[Fuc(a1-3)]GlcNAc
# Procedure, shortened: as §1
# [14] = target: Fuc(a1-3)[Gal(b1-4)]GlcNAc(b1-4)Gal(b1-4)[Fuc(a1-3)]GlcNAc(b1-4)Gal(b1-4)[Fuc(a1-3)]GlcNAc
# Procedure, shortened: as §1
# [15] = target: Fuc(a1-3)[Gal(b1-4)]GlcNAc6S
# Procedure, shortened: as §1
# [16] = target: Fuc(a1-3)[Gal3S(b1-4)]Glc6S
# Procedure, shortened: as §1
# [17] = target: Fuc(a1-3)[Gal3S(b1-4)]GlcNAc
# Procedure, shortened: as §1
# [18] = target: Fuc(a1-3)[Gal3S(b1-4)]GlcNAc6S
# Procedure, shortened: as §1
# [19] = target: Fuc(a1-3)[GalNAc(b1-4)]GlcNAc
# Procedure, shortened: as §1
# [20] = target: Fuc(a1-3)[Neu5Ac(a2-3)]Gal(b1-4)GlcNAc(b1-3)GalNAc
# Procedure, shortened: as §1
# Fuc(a1-4)GlcNAc = target: Fuc(a1-4)GlcNAc
# Procedure, shortened: as §1
# Fuc(b1-3)GlcNAc = target: Fuc(b1-3)GlcNAc
# Procedure, shortened: as §1
# Gal(a1-2)Gal = target: Gal(a1-2)Gal
# Procedure, shortened: as §1
# Gal(a1-3)Gal = target: Gal(a1-3)Gal
# Procedure, shortened: as §1
# Gal(a1-3)Gal(b1-3)GlcNAc = target: Gal(a1-3)Gal(b1-3)GlcNAc
# Procedure, shortened: as §1
# Gal(a1-3)Gal(b1-4)Glc = target: Gal(a1-3)Gal(b1-4)Glc
# Procedure, shortened: as §1
# Gal(a1-3)Gal(b1-4)GlcNAc = target: Gal(a1-3)Gal(b1-4)GlcNAc
# Procedure, shortened: as §1
# [21] = target: Gal(a1-3)Gal(b1-4)[Fuc(a1-3)]GlcNAc
# Procedure, shortened: as §1
# [22] = target: Gal(a1-3)Gal(b1-4)[Fuc(a1-3)]GlcNAc(b1-2)Man(a1-3)[Gal(a1-3)Gal(b1-4)[Fuc(a1-3)]GlcNAc(b1-2)Man(a1-6)]Man(b1-4)GlcNAc(b1-4)GlcNAc
# Procedure, shortened: as §1
# Gal(a1-3)GalNAc = target: Gal(a1-3)GalNAc
# Procedure, shortened: as §1
# [23] = target: Gal(a1-3)[Gal(a1-4)]Gal(b1-4)GlcNAc
# Procedure, shortened: as §1
# Gal(a1-4)Gal(b1-4)Glc = target: Gal(a1-4)Gal(b1-4)Glc
# Procedure, shortened: as §1
# Gal(a1-4)Gal(b1-4)GlcNAc = target: Gal(a1-4)Gal(b1-4)GlcNAc
# Procedure, shortened: as §1
# [24] = target: Gal(a1-4)Gal(b1-4)GlcNAc(b1-3)Gal(b1-4)Glc
# Procedure, shortened: as §1
# Gal(a1-4)GlcNAc = target: Gal(a1-4)GlcNAc
# Procedure, shortened: as §1
# Gal(a1-6)Glc = target: Gal(a1-6)Glc
# Procedure, shortened: as §1
# Gal(b1-2)Gal = target: Gal(b1-2)Gal
# Procedure, shortened: as §1
binder,measurement,setting,value
"Spy 2007 (Streptococcus pyogenes), Q99XV3 (protein) MKKGFFLMAMVVSLVMIAGCDKSANPKQPTQGMSVVTSFYPMYAMTKEVSGDLNDVRMIQSGAGIHSFEPSVNDVAAIYDADLFVYHSHTLEAWARDLDPNLKKSKVDVFEASKPLTLDRVKGLEDMEVTQGIDPATLYDPHTWTDPVLAGEEAVNIAKELGRLDPKHKDSYTKNAKAFKKEAEQLTEEYTQKFKKVRSKTFVTQHTAFSYLAKRFGLKQLGISGISPEQEPSPRQLKEIQDFVKEYNVKTIFAEDNVNPKIAHAIAKSTGAKVKTLSPLEAAPSGNKTYLENLRANLEVLYQQLK",glycan array binding signal (z-score),[1],-0.665
same,glycan array binding signal (z-score),[2],-0.606
same,glycan array binding signal (z-score),[3],-0.558
same,glycan array binding signal (z-score),[4],0.246
same,glycan array binding signal (z-score),[5],0.119
same,glycan array binding signal (z-score),[6],0.034
same,glycan array binding signal (z-score),[7],-0.148
same,glycan array binding signal (z-score),Fuc(a1-3)GlcNAc,0.046
same,glycan array binding signal (z-score),[8],0.675
same,glycan array binding signal (z-score),[9],0.136
same,glycan array binding signal (z-score),[10],0.038
same,glycan array binding signal (z-score),[11],-0.579
same,glycan array binding signal (z-score),[12],-0.44
same,glycan array binding signal (z-score),[13],-0.088
same,glycan array binding signal (z-score),[14],0.396
same,glycan array binding signal (z-score),[15],0.562
same,glycan array binding signal (z-score),[16],1.48
same,glycan array binding signal (z-score),[17],0.277
same,glycan array binding signal (z-score),[18],2.33
same,glycan array binding signal (z-score),[19],-0.891
same,glycan array binding signal (z-score),[20],5.41
same,glycan array binding signal (z-score),Fuc(a1-4)GlcNAc,0.449
same,glycan array binding signal (z-score),Fuc(b1-3)GlcNAc,0.122
same,glycan array binding signal (z-score),Gal(a1-2)Gal,-0.365
same,glycan array binding signal (z-score),Gal(a1-3)Gal,-0.177
same,glycan array binding signal (z-score),Gal(a1-3)Gal(b1-3)GlcNAc,-0.945
same,glycan array binding signal (z-score),Gal(a1-3)Gal(b1-4)Glc,-0.639
same,glycan array binding signal (z-score),Gal(a1-3)Gal(b1-4)GlcNAc,-0.263
same,glycan array binding signal (z-score),[21],-0.457
same,glycan array binding signal (z-score),[22],-0.52
same,glycan array binding signal (z-score),Gal(a1-3)GalNAc,-0.301
same,glycan array binding signal (z-score),[23],0.56
same,glycan array binding signal (z-score),Gal(a1-4)Gal(b1-4)Glc,0.582
same,glycan array binding signal (z-score),Gal(a1-4)Gal(b1-4)GlcNAc,-0.259
same,glycan array binding signal (z-score),[24],-1
same,glycan array binding signal (z-score),Gal(a1-4)GlcNAc,0.023
same,glycan array binding signal (z-score),Gal(a1-6)Glc,-0.074
same,glycan array binding signal (z-score),Gal(b1-2)Gal,-0.796

# Reprinted from the results shown (two entries):
binder,measurement,setting,value
"Spy 2007 (Streptococcus pyogenes), Q99XV3 (protein) MKKGFFLMAMVVSLVMIAGCDKSANPKQPTQGMSVVTSFYPMYAMTKEVSGDLNDVRMIQSGAGIHSFEPSVNDVAAIYDADLFVYHSHTLEAWARDLDPNLKKSKVDVFEASKPLTLDRVKGLEDMEVTQGIDPATLYDPHTWTDPVLAGEEAVNIAKELGRLDPKHKDSYTKNAKAFKKEAEQLTEEYTQKFKKVRSKTFVTQHTAFSYLAKRFGLKQLGISGISPEQEPSPRQLKEIQDFVKEYNVKTIFAEDNVNPKIAHAIAKSTGAKVKTLSPLEAAPSGNKTYLENLRANLEVLYQQLK",glycan array binding signal (z-score),[21],-0.457
same,glycan array binding signal (z-score),[22],-0.52
